These are yes or no findings as the source states them, for the method shown. In cells and extracts the contact can be indirect. Some entries that bind do so weakly or less than the wild type.
Target: Casein kinase 2 catalytic subunit alpha (CK2α) (rat (endogenous in cultured rat oligodendrocytes)) (UniProt P19139)
Test: co-IP; lysates (RIPA buffer) of cultured rat oligodendrocytes, untreated control or treated with 10 uM AMPA plus 100 uM CTZ for 30 min and collected 10, 30 and 60 min later; pre-cleared with Sepharose 6B; IP overnight at 4°C with rabbit anti-CK2α on Protein A-Sepharose; blot with mouse anti-p53; band quantified as % of control

The chains behind the UniProt entries cited, without tags or fusion partners.
UniProt P19139: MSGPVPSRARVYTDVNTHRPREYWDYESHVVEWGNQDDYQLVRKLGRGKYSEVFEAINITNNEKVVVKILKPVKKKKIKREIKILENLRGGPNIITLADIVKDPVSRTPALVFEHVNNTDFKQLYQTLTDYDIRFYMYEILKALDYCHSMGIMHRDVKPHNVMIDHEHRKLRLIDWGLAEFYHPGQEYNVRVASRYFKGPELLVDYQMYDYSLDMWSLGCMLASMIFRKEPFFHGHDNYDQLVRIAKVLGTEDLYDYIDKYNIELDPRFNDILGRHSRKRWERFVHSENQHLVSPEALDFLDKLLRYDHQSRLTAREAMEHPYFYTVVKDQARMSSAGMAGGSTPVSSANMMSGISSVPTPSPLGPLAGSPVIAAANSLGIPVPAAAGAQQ
UniProt P10361: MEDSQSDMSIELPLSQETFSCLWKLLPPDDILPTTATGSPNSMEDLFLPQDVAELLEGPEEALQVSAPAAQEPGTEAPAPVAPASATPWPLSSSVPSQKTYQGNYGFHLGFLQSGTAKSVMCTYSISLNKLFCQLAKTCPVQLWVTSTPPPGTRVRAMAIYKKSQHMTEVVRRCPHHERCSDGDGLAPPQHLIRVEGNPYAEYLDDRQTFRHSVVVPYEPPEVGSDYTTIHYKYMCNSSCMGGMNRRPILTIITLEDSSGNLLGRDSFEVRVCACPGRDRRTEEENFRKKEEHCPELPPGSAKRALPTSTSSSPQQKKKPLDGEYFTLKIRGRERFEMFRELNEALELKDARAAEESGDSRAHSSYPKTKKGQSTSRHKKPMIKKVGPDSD

## tumor suppressor p53 (from UniProt P10361 1-391)
  binding: binds
